The list shows a part of the results. The main result of the screen is listed elsewhere. These columns were measured beside it and carry no call. Most of these compounds were active or inconclusive in the main read-out, so they are no random draw. The note in brackets gives the kind of curve behind each potency; many fits are weak.
Experiment: qHTS Assay for Identifying the Cell-Membrane Permeable IMPase Inhibitors
Conditions: CHO-M1 cells, IP1 accumulation, HTRF TR-FRET ratio; measured here: donor channel 620 nm AC50

Row | SMILES | AC50
1 | CCOC(=O)c1cc(NC(=O)c2ccc(C)cc2)c(=O)n2c1oc1ccccc12 | 0.141 µM [falling, single point]
2 | CN1CCN(c2cc(=O)n(Cc3ccc(F)cc3)c(=O)[nH]2)CC1 | 0.224 µM [falling, full curve]
3 | CC(=O)C1=C(C)NC(SCC(=O)Nc2nc3ccccc3s2)=C(C#N)C1c1ccc(Cl)cc1 (configuration not stated) | 4.47 µM [falling, single point]
4 | COc1ccc(CSc2nc(C)cc(=O)[nH]2)cc1 | 5.01 µM [falling, partial curve, poor fit]
5 | Cc1ccccc1-n1nc(C(=O)O)c(C)c(C#N)c1=O | 6.31 µM [falling, single point]
6 | COc1cc(C(=O)NCCN2CCCC2)cc(OC)c1OC | 31.6 µM [falling, single point]
7 | CC(C)(C)C(=O)NC(NC(=S)Nc1sc2c(c1C#N)CCCC2)C(Cl)(Cl)Cl (configuration not stated) | 10 µM [rising, partial curve]
8 | O=c1cc2c(nn1Cc1cccc(Cl)c1)-c1ccccc1CC2 | 25.1 µM [falling, single point]
9 | COc1ccc(CN2C(=O)[C@@H]3C(c4ccccc4Cl)=NO[C@@H]3C2=O)cc1 | 5.01 µM [rising, single point]
10 | Cc1ccc(S(=O)(=O)N2CCN(C(=O)CN3CCOCC3)C2c2ccccc2)cc1 (configuration not stated) | 3.16 µM [rising, single point]
11 | N#C/C(=C\c1ccc(O)c(O)c1)C(=O)c1ccc(O)c(O)c1 | 31.6 µM [falling, partial curve, poor fit]
12 | O=c1cc(N2CCc3ccccc3C2)[nH]c(=O)n1Cc1ccc(F)cc1 | 0.316 µM [rising, partial curve]
13 | c1coc(-c2nc3c4c5c(sc4ncn3n2)CCCC5)c1 | 5.01 µM [rising, single point]
14 | CCn1nnnc1SCC(=O)NCc1ccco1 | 0.398 µM [rising, full curve, poor fit]
15 | Cc1nnc(SC(C)C(=O)Nc2ccc(S(=O)(=O)NC3CCCCC3)cc2)s1 (configuration not stated) | 31.6 µM [falling, single point]
16 | Cc1cccc(C(=O)Nc2cc3c(cc2N2CCOCC2)n(C)c(=O)n3C)c1 | 0.282 µM [falling, partial curve, poor fit]
17 | Cc1ccc(OCCSc2ncnc3sc(C)c(C)c23)cc1C | 5.01 µM [rising, partial curve]
18 | O=C(NCCc1ccccc1)c1c(O)c2cccc3c2n(c1=O)CC3 | 12.6 µM [rising, single point]
19 | Cc1cc(OCC(C)C)ccc1/C(O)=C1/C(=O)C(=O)N(Cc2cccnc2)C1c1ccncc1 (configuration not stated) | 22.4 µM [rising, partial curve, poor fit]
20 | CCOc1ccc(-c2nnc3sc(COc4ccccc4)nn23)cc1 | 0.0631 µM [falling, full curve, poor fit]
21 | Cc1cc(C)c(NC(=O)NC(=O)c2ccc(F)cc2)c(C)n1 | 0.0501 µM [falling, full curve, poor fit]
22 | COCCN1C(=O)C(=O)/C(=C(/O)c2ccc(S(=O)(=O)N3CCOCC3)cc2)C1c1ccc(C(C)C)cc1 (configuration not stated) | 31.6 µM [rising, single point]
23 | CCOC(=O)CC(=O)CSc1ncnc2c1oc1ccccc12 | 10 µM [rising, partial curve]

Row | SMILES | AC50
24 | NC(=O)CSc1ncnc2c1oc1ccccc12 | 15.8 µM [rising, single point]
25 | CC(=O)N(CCC(Cc1ccccc1)c1ccc2c(c1)OCO2)Cc1ccccc1F (configuration not stated) | 1 µM [rising, full curve, poor fit]
26 | C=CCn1c(SCCC#N)nnc1-c1ccncc1 | 25.1 µM [falling, single point]
27 | CCOC(=O)C1=C(C)OC(N)=C(C#N)C1c1cc2cc(C)ccc2nc1N1CCCCC1 (configuration not stated) | 35.5 µM [rising, single point]
28 | Brc1ccc([C@H]2CN3CCSC3=N2)cc1 | 0.501 µM [rising, full curve, poor fit]
29 | O=C(/C=C/c1ccccc1)NC(=S)NNC(=O)Cc1cccs1 | 3.98 µM [falling, single point]
30 | NC(=O)c1c(NC(=O)C2CCCO2)sc2c1CCC2 (configuration not stated) | 1.26 µM [falling, partial curve, poor fit]
31 | CCC(C(=O)NCCN1CCN(C)CC1)n1c(C)c2cnn(-c3ccccc3)c(=O)c2c1C (configuration not stated) | 20 µM [falling, single point]
32 | COC(=O)c1sccc1NC(=S)N1CCCC(C)C1 (configuration not stated) | 0.126 µM [falling, full curve, poor fit]
33 | Cc1ccc(-n2c(Cc3cccn3C)nnc2SCC(=O)Nc2cc(C)on2)cc1 | 0.0794 µM [falling, full curve, poor fit]
34 | COc1cccc(/C=N/NC(=O)c2c(-c3ccccc3)noc2C)c1O | 5.01 µM [falling, single point]
35 | O=C(/C=C/c1ccco1)NC(=S)Nc1cc(-c2nc3ccccc3s2)ccc1Cl | 35.5 µM [rising, single point]
36 | C=CCOc1ccccc1CNCc1cccnc1 | 0.02 µM [falling, full curve, poor fit]
37 | O=C1CNC(=O)N1Cc1ccc(Br)cc1 | 5.01 µM [rising, single point]
38 | Cc1ccc2cc(C#N)c(SCC(=O)NCC3CCCO3)nc2c1 (configuration not stated) | 31.6 µM [rising, single point]
39 | Cc1cccc(OCC(=O)N2CCN(C(=O)CCC3CCCC3)CC2)c1 | 1.58 µM [rising, partial curve, poor fit]
40 | COCCNC(=O)c1c(N)sc2c1CCCC2 | 5.01 µM [falling, single point]
41 | CCCCNS(=O)(=O)c1ccc(OC)cc1 | 1.58 µM [falling, full curve]
42 | Cn1c(SCC(=O)NCCc2ccccc2)nnc1-c1ccncc1 | 5.01 µM [rising, single point]
43 | CCCCS(=O)(=O)/C=C/[C@H]1[C@H](S(=O)(=O)CCCC)[C@H]2C=C[C@@H]1C2 | 0.0316 µM [falling, single point]
44 | C/C(=N\NC(=O)C1CC1c1ccccc1)c1ccc(C)s1 (configuration not stated) | 0.251 µM [falling, full curve]
45 | O=S(=O)(NCCOc1ccc(F)cc1)c1ccc2c(c1)OCCO2 | 1.26 µM [rising, full curve, poor fit]
46 | COC(=O)c1ccc(S(=O)(=O)NCc2cccc(OC)c2)n1C | 0.0251 µM [falling, full curve, poor fit]

Quoted at random: 4 entries already listed, in no set order.
Row | SMILES | AC50
8 | O=c1cc2c(nn1Cc1cccc(Cl)c1)-c1ccccc1CC2 | 25.1 µM [falling, single point]
17 | Cc1ccc(OCCSc2ncnc3sc(C)c(C)c23)cc1C | 5.01 µM [rising, partial curve]
28 | Brc1ccc([C@H]2CN3CCSC3=N2)cc1 | 0.501 µM [rising, full curve, poor fit]
12 | O=c1cc(N2CCc3ccccc3C2)[nH]c(=O)n1Cc1ccc(F)cc1 | 0.316 µM [rising, partial curve]

(listing goes on)

Row | SMILES | AC50
47 | CC1CN(C2CCN(C(=O)COc3ccccc3)CC2)CC(C)O1 (configuration not stated) | 3.55 µM [rising, single point]
48 | CC(C)(C)CC(=O)OCC(=O)Nc1cc(C(C)(C)C)nn1-c1ccccc1 | 6.31 µM [falling, single point]
49 | COc1ccc2c(c1)-c1c(sn(-c3ccc(OC)c(OC)c3)c1=S)C(C)(C)N2 | 0.0316 µM [falling, full curve, poor fit]
50 | Clc1ccc(Sc2cc(N3CCOCC3)nc(-c3ccccc3)n2)cc1 | 3.16 µM [falling, partial curve]
51 | O=C(c1cccc(Br)c1)N1CCN(C(=O)N2CCOCC2)CC1 | 7.94 µM [falling, partial curve]
52 | CCN1C(=O)CSc2ccc(C(=O)NCc3ccco3)cc21 | 0.00631 µM [falling, full curve, poor fit]
53 | Cc1ccccc1Cn1nc(C)c(NC(=O)c2cc3nc(-c4ccco4)cc(C(F)(F)F)n3n2)c1C | 0.0501 µM [rising, full curve, poor fit]
54 | CCCCCCN1CC(O)=C(c2ccccc2)C1=N | 6.31 µM [falling, single point]
55 | O=C1c2ccccc2C(=O)N1CSc1nnc(Nc2ccccc2F)s1 | 0.01 µM [rising, full curve, poor fit]
56 | CCCOC(=O)c1ccc(Nc2nc(C)cc(=O)[nH]2)cc1 | 12.6 µM [falling, single point]
57 | Cc1ccccc1S(=O)(=O)NC1OC(=O)C(Cl)=C1Cl (configuration not stated) | 5.01 µM [rising, partial curve, poor fit]
58 | CC1CCCN(C(=O)CSc2cnc3ccccc3n2)C1 (configuration not stated) | 20 µM [rising, partial curve]
59 | CCC1CCCCN1C(=O)CSc1nnc(-c2ccco2)o1 (configuration not stated) | 12.6 µM [falling, partial curve, poor fit]
60 | Cc1ccc(S(=O)(=O)N2CCCC2CO)cc1 (configuration not stated) | 0.398 µM [rising, full curve, poor fit]
61 | O=C(NCCN1CCOCC1)c1ccccc1-c1ccccc1 | 12.6 µM [rising, single point]
62 | O=S(=O)(Nc1cnc2ccccc2c1)N1CCCCCC1 | 10 µM [falling, partial curve]
63 | Cc1cccc(NC(=O)CSc2nc3ccccc3nc2N2CCCCC2)c1C | 5.62 µM [falling, single point]
64 | CC(C)COP(=O)(c1ccc(N(C)C)cc1)C(O)c1ccccc1F (configuration not stated) | 10 µM [falling, partial curve, poor fit]
65 | Cc1cc2ccccc2c(=O)n1CC(=O)NCC(=O)N1CCN(c2cccc(Cl)c2)CC1 | 5.01 µM [falling, single point]
66 | COc1ccccc1Cn1c(=O)c2ccccc2n2c(SCC(=O)N3CCCCC3)nnc12 | 35.5 µM [rising, single point]
67 | CC1CCN(C(=O)c2ccc(-n3cnnn3)cc2)CC1 | 31.6 µM [rising, partial curve]

From PubChem BioAssay AID901 (National Center for Advancing Translational Sciences (NCATS), 2007)
